Source: doi:10.1101/2024.01.22.576510 (bioRxiv, 2024)
Like-named read-outs stand apart in the source and are kept apart here. These are yes or no findings as the source states them, for the method shown. Some results given as binding are weak or reduced against the parent protein; the word gives no strength.

How the values were obtained:
[1] = target: T1, human NTCP on HEK-NTCP cells (human) (UniProt Q14973); assay: binding of a fluorescent peptide to cells
T1 sequence: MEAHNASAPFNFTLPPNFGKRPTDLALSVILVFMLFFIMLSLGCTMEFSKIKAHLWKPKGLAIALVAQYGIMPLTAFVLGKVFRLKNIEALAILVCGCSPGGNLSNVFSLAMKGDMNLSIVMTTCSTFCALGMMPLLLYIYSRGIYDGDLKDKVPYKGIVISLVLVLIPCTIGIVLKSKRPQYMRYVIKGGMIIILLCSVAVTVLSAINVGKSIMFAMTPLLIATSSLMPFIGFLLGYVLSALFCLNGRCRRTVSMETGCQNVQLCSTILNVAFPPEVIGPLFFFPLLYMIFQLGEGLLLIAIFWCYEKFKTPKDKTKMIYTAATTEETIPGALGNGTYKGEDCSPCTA

[2] = target: T1, human NTCP on HEK-NTCP cells (human); assay: binding of a fluorescent peptide to cells; remark: listed apart in the source

For “NH2-terminally myristoylated and COOH-terminally AlexaFluor 568-coupled fluorescent myr-preS1 2-48 peptide (from UniProt P03138 2-48)”, the binding [1] was “binds” and the binding [2] was “binds”.
